Results are given in words; binding and its absence hold for the method and conditions named. In cells and extracts the contact can be indirect. Here binding means that the protein was enriched with, or labelled near, the bait; the list need not be complete.
T1: Imp4-FTpA (S. cerevisiae) (UniProt P53941)
T1 sequence: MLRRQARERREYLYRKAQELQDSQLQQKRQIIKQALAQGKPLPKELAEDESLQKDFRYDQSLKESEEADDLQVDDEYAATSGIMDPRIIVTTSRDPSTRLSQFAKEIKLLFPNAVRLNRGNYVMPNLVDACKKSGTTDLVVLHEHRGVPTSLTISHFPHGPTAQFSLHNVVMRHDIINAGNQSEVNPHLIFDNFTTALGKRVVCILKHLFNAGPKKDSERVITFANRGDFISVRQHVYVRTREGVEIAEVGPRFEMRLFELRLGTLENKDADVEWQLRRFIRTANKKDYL

B1: Mpp10 (yeast, endogenous) (protein, UniProt P47083 1-593)
chain: MSELFGVLKSNAGRIILKDPSATSKDVKAYIDSVINTCKNGSITKKAELDEITVDGLDANQVWWQVKLVLDSIDGDLIQGIQELKDVVTPSHNLSDGSTLNSSSGEESELEEAESVFKEKQMLSADVSEIEEQSNDSLSENDEEPSMDDEKTSAEAAREEFAEEKRISSGQDERHSSPDPYGINDKFFDLEKFNRDTLAAEDSNEASEGSEDEDIDYFQDMPSDDEEEEAIYYEDFFDKPTKEPVKKHSDVKDPKEDEELDEEEHDSAMDKVKLDLFADEEDEPNAEGVGEASDKNLSSFEKQQIEIRKQIEQLENEAVAEKKWSLKGEVKAKDRPEDALLTEELEFDRTAKPVPVITSEVTESLEDMIRRRIQDSNFDDLQRRTLLDITRKSQRPQFELSDVKSSKSLAEIYEDDYTRAEDESALSEELQKAHSEISELYANLVYKLDVLSSVHFVPKPASTSLEIRVETPTISMEDAQPLYMSNASSLAPQEIYNVGKAEKDGEIRLKNGVAMSKEELTREDKNRLRRALKRKRSKANLPNVNKRSKRNDVVDTLSKAKNITVINQKGEKKDVSGKTKKSRSGPDSTNIKL
B2: Imp3 (yeast, endogenous) (protein, UniProt P32899 1-183)
chain: MVRKLKHHEQKLLKKVDFLEWKQDQGHRDTQVMRTYHIQNREDYHKYNRICGDIRRLANKLSLLPPTDPFRRKHEQLLLDKLYAMGVLTTKSKISDLENKVTVSAICRRRLPVIMHRLKMAETIQDAVKFIEQGHVRVGPNLINDPAYLVTRNMEDYVTWVDNSKIKKTLLRYRNQIDDFDFS
B3: Rps5 (yeast, endogenous) (protein, UniProt P26783 1-225)
chain: MSDTEAPVEVQEDFEVVEEFTPVVLATPIPEEVQQAQTEIKLFNKWSFEEVEVKDASLVDYVQVRQPIFVAHTAGRYANKRFRKAQCPIIERLTNSLMMNGRNNGKKLKAVRIIKHTLDIINVLTDQNPIQVVVDAITNTGPREDTTRVGGGGAARRQAVDVSPLRRVNQAIALLTIGAREAAFRNIKTIAETLAEELINAAKGSSTSYAIKKKDELERVAKSNR

Target: T1, Imp4-FTpA (S. cerevisiae)
Assay: affinity purification with mass spectrometry; tandem affinity purification via Imp4-FTpA from S. cerevisiae (IgG Sepharose, TEV, anti-Flag agarose; TAP buffer 50 mM Tris-HCl pH 7.5, 150 mM NaCl), then 15–40% sucrose gradient; a top fraction on SDS-PAGE, Coomassie, bands identified by mass spectrometry

binding, binds:
B1
B2
B3
